The text below walks through data of doi:10.1101/2023.12.02.569699 (bioRxiv, 2023).

The chains behind the UniProt entries cited, without tags or fusion partners. Residues count along the entry.
UniProt Q99496, whole entry: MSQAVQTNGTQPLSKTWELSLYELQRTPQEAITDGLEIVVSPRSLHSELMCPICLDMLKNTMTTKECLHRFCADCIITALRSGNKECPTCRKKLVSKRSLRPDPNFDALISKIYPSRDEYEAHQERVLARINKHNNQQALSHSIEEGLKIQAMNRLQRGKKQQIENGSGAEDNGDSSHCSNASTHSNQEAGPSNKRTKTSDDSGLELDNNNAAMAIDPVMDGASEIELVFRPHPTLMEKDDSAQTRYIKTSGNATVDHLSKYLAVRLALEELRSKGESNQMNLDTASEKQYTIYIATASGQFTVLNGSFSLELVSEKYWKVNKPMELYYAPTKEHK
UniProt Q13263, 1-501: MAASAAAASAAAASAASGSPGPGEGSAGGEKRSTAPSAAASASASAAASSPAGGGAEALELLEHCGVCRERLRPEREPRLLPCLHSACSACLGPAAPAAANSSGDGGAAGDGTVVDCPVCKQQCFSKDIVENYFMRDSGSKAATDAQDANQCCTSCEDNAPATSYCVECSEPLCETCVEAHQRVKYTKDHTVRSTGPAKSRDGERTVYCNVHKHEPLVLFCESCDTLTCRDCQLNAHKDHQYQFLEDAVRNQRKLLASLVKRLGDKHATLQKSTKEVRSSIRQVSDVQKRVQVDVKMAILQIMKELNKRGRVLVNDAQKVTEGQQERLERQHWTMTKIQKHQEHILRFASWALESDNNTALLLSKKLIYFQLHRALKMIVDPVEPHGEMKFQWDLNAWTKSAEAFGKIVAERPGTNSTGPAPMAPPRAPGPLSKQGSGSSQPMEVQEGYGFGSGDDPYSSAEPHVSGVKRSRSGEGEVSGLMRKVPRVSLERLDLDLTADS

One experiment concerns the target RING1B (H. sapiens) (UniProt Q99496). As to the kind of experiment: SEC. In general terms: Size exclusion chromatography separates by hydrodynamic size, large species first.
In another experiment the target is TRIM28 (1-501) (UniProt Q13263). As to the kind of experiment: co-purification.

Results are given in words; binding and its absence hold for the method and conditions named. Some binding calls cover weakened binding; strength is not graded here.

For the substance “CBX7^CD(HP1β) (from UniProt Q8VDS3 1-7; P83916 18-72; Q8VDS3 70-158)”, the binding result with RING1B (H. sapiens) is “binds”.

Consider “HP1β^CD(CBX7) (from UniProt P83916 1-17; Q8VDS3 8-69; P83916 73-185)”, for which the binding result with TRIM28 (1-501) is “binds”.
